Where “and” joins values, the source holds several entries; their conditions need not be identical. Identical values can stand only once. The list shows a part of the results. The main result of the screen is listed elsewhere. These columns were measured beside it and carry no call. Most of these compounds were active or inconclusive in the main read-out, so they are no random draw. The note in brackets gives the kind of curve behind each potency; many fits are weak.

As a reminder, the AC50 is the concentration at which the activity in the assay is half-maximal.

A short description of the experiment: Cell signaling CRE-BLA (Fsk stim). Conditions: CHO CRE-bla reporter (cAMP response element driving beta-lactamase), forskolin EC10, beta-lactamase ratio; measured here: 460 nm blue channel. Put shortly:
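CRE-bla CHO cells stimulated with EC10 NKH 477 (water-soluble forskolin) and compound titrations, 3 h at 37C; beta-lactamase read with CCF4 after 2 h at room temperature. Activity from 460/530 nm emission ratio, AC50 values for positive or negative modulation.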
On to `N#C[C@@H](Cc1ccc(O)c(O)c1)C(=O)N1CCc2ccccc21`, for which the AC50 was 7.94 µM [falling, full curve]. Next, `Cc1cccc(-c2nsc(SCC(=O)Nc3cc(C)on3)n2)c1`: 2.51 µM [rising, partial curve]; `COC(=O)C1C(=O)C2=C(CC1C)NC(=O)CC2c1cccc(C)c1` (stereo unspecified): 0.0794 µM [rising, full curve]; `CS(=O)(=O)c1ccc(Cl)c(NC(=O)COC(=O)CNC(=O)c2ccc(Br)o2)c1`: 0.01 µM [falling, full curve, poor fit]. Next, `CCNc1ncc2nc(-c3cc(F)cc(F)c3)c(=O)n(Cc3cccs3)c2n1`: 0.631 µM [rising, full curve]. The same measure for `COc1ccccc1Nc1nc(N)nc(CSCCO)n1`: 12.6 µM [falling, partial curve, poor fit]. With `CN(C)C(=O)c1ccc(-c2nccc(-n3ccnc3)n2)cc1`, the AC50 is 3.98 µM [rising, single point]. Next, `COC(=O)C1=C(C)N(C)C(C)=C(C(=O)OC)C1c1ccccc1C`: 15.8 µM [rising, single point]. The same measure for `CCNc1nc(NCC)nc(OCCNS(=O)(=O)c2cc(C)ccc2C)n1`: 10 µM [rising, partial curve]; for `Cc1occc1C(=O)Nc1nccs1`: 10 µM [falling, single point].

In the case of `CCOC(=O)C1CCCN(c2cc(C)nc3cc(-c4ccc(F)cc4)nn23)C1` (stereo unspecified), the AC50 was 20 µM [rising, partial curve]. Next, `Cc1ccc(C)c(NC(=O)CSc2nnc(CCCCCNC(=O)OC(C)(C)C)o2)c1`: 20 µM [falling, single point]; `Cc1ccc(N2C(=O)c3oc4ccccc4c(=O)c3C2c2cccc(O)c2)nc1` (stereo unspecified): 25.1 µM [falling, single point]; `CCOC(=O)c1cnn(-c2cc(C)nc3c(-c4ccccc4)cnn23)c1N`: 12.6 µM [falling, partial curve]. With `Cc1cccc(-n2ncc3c(NC4CCCCC4)ncnc32)c1`, the AC50 was 7.94 µM [rising, partial curve].

`COc1cc2c(cc1OC)-c1cc(NC3CCCCC3)nc(=O)n1CC2`: the AC50 was 2.51 µM [rising, full curve]. Next, `Fc1cccc(CSc2ncnc3c2oc2ccccc23)c1`: 1.26 µM [rising, partial curve]; `CCCn1c(=O)c(C(=O)NCc2ccc(OC)c(OC)c2)c(O)c2ccccc21`: 2.51 µM [rising, partial curve]; `CCOC(=O)CSc1nc2c(c(=O)n(Cc3ccccc3Cl)c(=O)n2C)n1C`: 20 µM [falling, single point].

Regarding `CCCCCCN(C(=O)CCCCCN1C(=O)NC(c2ccc(C(C)(C)C)cc2)C(C(=O)OCc2ccccc2)=C1C)C(C(=O)NCCCC)c1ccc(OCC(=O)OC)c(C(=O)OC)c1` (stereo unspecified), the AC50 was 3.16 µM [rising, single point]. The same measure for `Cc1ccc2cc3cc(C(=O)NCc4ccco4)oc3nc2c1`: 0.00398 µM [falling, full curve, poor fit]; for `O=C(O)C1(c2cccc(Cl)c2)CCC1`: 0.1 µM [falling, full curve]; for `CCn1c(SCC(=O)N2CCCc3ccccc32)nc2c1c(=O)n(C)c(=O)n2C`: 10 µM [rising, single point]. The same measure for `Brc1c(NC2=NCCN2)ccc2nccnc12`: 25.1 µM [rising, partial curve] and 20 µM [rising, partial curve, poor fit]; for `CCOC(=O)COc1cc2c3c(c(=O)oc2cc1C)CCCC3`: 0.0158 µM [falling, full curve, poor fit]; for `Cc1nc(SCC(=O)Nc2cc(C)on2)c2c(=O)n(C)c(=O)n(C)c2n1`: 2 µM [rising, full curve]. For `Cc1ccc(S(=O)(=O)N2CC(O)CC2C(=O)Nc2ccc3c(c2)CCC3)cc1` (stereo unspecified), the concentration at half-maximal activity (AC50) was 0.00316 µM [falling, full curve, poor fit]. Next, `COc1cccc(-c2cc(C(F)(F)F)nc(N3CCCCC3)n2)c1`: 12.6 µM [rising, single point]. As to `COc1ccc(NC(=O)CCCCn2c(=O)[nH]c3ccccc3c2=O)cc1`, the AC50 is 2 µM [rising, full curve, poor fit]. The same measure for `Cc1c(NC(=O)CC(=O)Nc2c(C)n(C)n(-c3ccccc3)c2=O)c(=O)n(-c2ccccc2)n1C`: 10 µM [rising, partial curve]. The same measure for `CN(C)c1ccc(-c2ccc3ncnc(N(C)C)c3c2)cc1`: 12.6 µM [rising, partial curve]; for `CC(C)c1nc2sc3c(SCC(=O)NCc4ccco4)ncnc3c2c2c1CCC2`: 12.6 µM [rising, single point]. Next, `COc1cc(C2N=C(c3ccccc3)NO2)cc(Br)c1O` (stereo unspecified): 3.98 µM [falling, single point]; `O=c1n(Cc2ccc(Cl)cc2)c2sc3c(c2c2ncnn12)CCCC3`: 3.98 µM [rising, partial curve]. In the case of `Cc1ccccc1NS(=O)(=O)c1ccc(C2CNC(=O)C2)cc1` (stereo unspecified), the AC50 is 12.6 µM [rising, partial curve]. Next, `COc1ccc(C(=O)N2CCCC(c3nc(-c4ccc(OC)c(OC)c4)no3)C2)c(OC)c1` (stereo unspecified): 10 µM [rising, partial curve]; `COc1ccccc1N1CCN(CC(=O)c2ccc3ccn(C(C)=O)c3c2)CC1`: 2.51 µM [falling, full curve]; `O=C(c1ccc2c(c1)OCO2)N1CCNc2ccccc2C1`: 15.8 µM [rising, single point].

For the molecule `FC(F)(F)c1cc(-c2ccco2)nc(-n2nc(C(F)(F)F)cc2C2CC2)n1`, the AC50 is 0.316 µM [rising, full curve].

As for `COc1cccc(-c2csc(N3CCN(S(=O)(=O)c4ccc(F)cc4)CC3)n2)c1`, the AC50 is 15.8 µM [falling, single point]. The same measure for `COc1ccc2nc(SCC(=O)Nc3ccccc3C#N)[nH]c2c1`: 15.8 µM [rising, partial curve]; for `O=C(CN(CCc1ccccc1)C(=O)CN1C(=O)COc2ccccc21)NCc1ccco1`: 0.316 µM [falling, partial curve]; for `C=CCn1c(SCc2cccnc2)nnc1-c1ccncc1`: 20 µM [rising, single point]. Next, `Oc1ccc2[nH]ccc2c1`: 10 µM [falling, partial curve]; `Fc1ccc2[nH]c3c(N4CCSCC4)ncnc3c2c1`: 25.1 µM [falling, single point].

Take `CCn1c(SCC(N)=O)nnc1-c1ccc(S(=O)(=O)N2CCN(C)CC2)cc1`: the AC50 is 3.98 µM [falling, single point].

Take `CC(C)COC(=O)n1c(SCC(=O)N(C)C)nc2ccccc21`: the half-maximal activity concentration (AC50) was 10 µM [rising, partial curve]. The same measure for `NC(=O)c1ccccc1NC(=O)CS(=O)(=O)Cc1ccccc1`: 10 µM [rising, partial curve]; for `CC(C)Cn1c(N)c(C(=O)COC(=O)c2ccc3c(c2)OCCO3)c(=O)n(C)c1=O`: 12.6 µM [rising, partial curve]; for `CCOC(=O)c1sc(N2C(=O)C(O)=C(C(=O)c3ccco3)C2c2ccccc2)nc1C` (stereo unspecified): 15.8 µM [rising, single point]. For `CCOC(=O)c1c(C)[nH]c(C(=O)COC(=O)C2CC2C)c1C` (stereo unspecified), the AC50 is 7.94 µM [rising, partial curve]. On to `O=C(CCn1nc(-c2ccccc2)c2ccccc2c1=O)N1CCN(c2ccccc2)CC1`, for which the AC50 is 5.01 µM [rising, partial curve]. The same measure for `Cc1cc(C)c2cc(CN(CCO)C(=O)Nc3ccc(F)cc3)c(=O)[nH]c2c1`: 10 µM [rising, partial curve]; for `COc1ccc2[nH]cc(CCNc3cc(-c4ccc(C(=O)N(C)C)cc4)ncn3)c2c1`: 25.1 µM [rising, single point]; for `Cc1cc(NC(=O)CCCS(=O)(=O)c2nc(-c3cccs3)cc(C(F)(F)F)n2)no1`: 5.01 µM [falling, partial curve].

On to `O=C(O)c1cc(NCc2ccc3c(c2)OCO3)ccc1N1CCOCC1`, for which the half-maximal activity concentration (AC50) is 3.16 µM [falling, full curve, poor fit]. The same measure for `COc1ccc(C(=O)N2CCN(C(C)=O)CC2)cc1S(=O)(=O)NCc1ccc(Cl)cc1`: 5.01 µM [falling, partial curve]. Regarding `CCCCc1ccc2nc(NC(=O)OC)[nH]c2c1`, the AC50 was 0.316 µM [rising, full curve]. The same measure for `CC(=O)Nc1ccc(NC(=O)CSc2nccn2Cc2ccccc2)cc1`: 1.26 µM [falling, full curve]. In the case of `COC(=O)c1ccc(COc2ccc3c(C)c(C)c(=O)oc3c2C)o1`, the AC50 was 0.00316 µM [falling, full curve].

As to `Cc1ccc2c(c1)c1nc3ccccc3nc1n2CCN1CCOCC1`, the AC50 is 1.58 µM [rising, full curve].

On to `Cc1cc(C(F)(F)F)nn1-c1nc(-c2ccco2)cc(C(F)(F)F)n1`, for which the AC50 was 0.01 µM [rising, full curve, poor fit]. Next, `CCOC(=O)c1c(NC(=O)c2ccco2)sc2c1CCCCC2`: 12.6 µM [rising, partial curve].

For the molecule `COc1cccc(CN2CCN(c3ncccn3)CC2)c1`, the half-maximal activity concentration (AC50) was 0.00398 µM [falling, full curve]. The same measure for `Cc1nc(NCc2ccco2)c2c3c(sc2n1)CCC3`: 10 µM [rising, partial curve]. Next, `Cc1ccc(-c2nn(C)c(=O)c3ccccc23)cc1S(=O)(=O)N1CCCC1`: 2.51 µM [rising, full curve].

(Values after PubChem BioAssay AID662 (National Center for Advancing Translational Sciences (NCATS), 2007).)
